Experimental data from paper PMC10954759.

By UniProt entry, the sequences of proteins in these tests, tags left out. Where a name states a change or a piece, a line headed by the entry shows the natural chain unless it says otherwise.
UniProt Q9H3D4: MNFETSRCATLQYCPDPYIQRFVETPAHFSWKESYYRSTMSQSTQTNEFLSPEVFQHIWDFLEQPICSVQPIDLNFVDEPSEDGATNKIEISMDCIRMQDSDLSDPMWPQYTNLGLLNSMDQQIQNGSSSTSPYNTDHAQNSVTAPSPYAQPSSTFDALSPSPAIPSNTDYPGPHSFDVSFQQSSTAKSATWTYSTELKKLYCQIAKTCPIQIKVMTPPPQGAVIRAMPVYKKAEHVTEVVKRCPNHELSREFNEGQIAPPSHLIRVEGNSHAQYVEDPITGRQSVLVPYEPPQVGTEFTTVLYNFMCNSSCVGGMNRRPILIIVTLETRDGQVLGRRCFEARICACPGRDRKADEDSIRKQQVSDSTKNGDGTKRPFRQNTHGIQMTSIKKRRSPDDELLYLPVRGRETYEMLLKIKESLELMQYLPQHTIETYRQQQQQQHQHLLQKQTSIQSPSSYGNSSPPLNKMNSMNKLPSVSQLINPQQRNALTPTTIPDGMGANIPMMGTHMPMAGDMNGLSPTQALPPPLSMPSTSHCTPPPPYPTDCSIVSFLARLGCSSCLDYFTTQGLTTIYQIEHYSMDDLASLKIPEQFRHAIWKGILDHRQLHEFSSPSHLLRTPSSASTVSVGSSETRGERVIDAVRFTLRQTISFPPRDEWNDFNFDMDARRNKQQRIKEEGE
UniProt P42224: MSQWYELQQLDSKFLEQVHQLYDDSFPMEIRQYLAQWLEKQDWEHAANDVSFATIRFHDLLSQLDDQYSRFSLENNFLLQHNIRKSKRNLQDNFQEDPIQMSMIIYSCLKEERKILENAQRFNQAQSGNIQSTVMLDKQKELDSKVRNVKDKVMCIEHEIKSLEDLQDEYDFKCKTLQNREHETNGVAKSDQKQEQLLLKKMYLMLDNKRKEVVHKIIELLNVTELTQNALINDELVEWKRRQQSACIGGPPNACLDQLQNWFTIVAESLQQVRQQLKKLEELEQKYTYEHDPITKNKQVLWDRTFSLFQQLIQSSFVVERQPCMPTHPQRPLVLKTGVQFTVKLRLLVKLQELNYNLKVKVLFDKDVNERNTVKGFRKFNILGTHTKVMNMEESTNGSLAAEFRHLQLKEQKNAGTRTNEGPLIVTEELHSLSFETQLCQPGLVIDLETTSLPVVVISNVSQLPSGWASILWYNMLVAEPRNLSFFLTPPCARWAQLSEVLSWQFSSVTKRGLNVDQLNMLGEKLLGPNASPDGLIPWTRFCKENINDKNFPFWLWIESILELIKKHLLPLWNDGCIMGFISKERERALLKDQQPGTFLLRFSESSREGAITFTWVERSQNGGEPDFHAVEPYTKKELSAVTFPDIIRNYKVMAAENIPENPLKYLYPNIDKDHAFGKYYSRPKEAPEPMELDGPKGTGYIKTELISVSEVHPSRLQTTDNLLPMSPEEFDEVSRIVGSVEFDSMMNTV

Target: TP63 (endogenous, human TT squamous cancer cells) (human (endogenous in TT)) (UniProt Q9H3D4)
Experiment: co-IP; endogenous proteins; 500 µg cell lysate (RIPA buffer with protease and phosphatase inhibitors) incubated with the indicated antibody or IgG overnight at 4 °C, then Protein A/G for 4 h at 4 °C, Western blotting; reciprocal precipitation with TP63 or p-STAT1 antibodies; human TT and murine MOC22 …

Row | binding | Substance
1 | binds | STAT1 phosphorylated at Ser727 (endogenous, human TT cells) (from UniProt P42224 1-750)
2 | binds weakly | STAT1 phosphorylated at Tyr701 (endogenous, human TT cells) (from UniProt P42224 1-750)

Results are given in words; binding and its absence hold for the method and conditions named. Binding seen in cells or lysates may run through a third protein. Binding calls can cover weak binding; strength is not graded here.
